In the assay the target is receptor-interacting protein kinase 1 (RIPK1), human (human (endogenous in HT29)) (UniProt Q13546). Put plainly: co-IP; endogenous RIPK1 immunoprecipitated with anti-RIPK1 antibody (overnight, 4 °C; Protein A/G agarose) from RIPA lysates of L929, MDF or HT29 cells after necroptosis induction, cells pretreated with DMSO, Vemurafenib or Nec-1; RIPK3 detected by western blot.

Protein sequences, listed by entry. Tags and fused reporters are not part of them.
UniProt Q13546: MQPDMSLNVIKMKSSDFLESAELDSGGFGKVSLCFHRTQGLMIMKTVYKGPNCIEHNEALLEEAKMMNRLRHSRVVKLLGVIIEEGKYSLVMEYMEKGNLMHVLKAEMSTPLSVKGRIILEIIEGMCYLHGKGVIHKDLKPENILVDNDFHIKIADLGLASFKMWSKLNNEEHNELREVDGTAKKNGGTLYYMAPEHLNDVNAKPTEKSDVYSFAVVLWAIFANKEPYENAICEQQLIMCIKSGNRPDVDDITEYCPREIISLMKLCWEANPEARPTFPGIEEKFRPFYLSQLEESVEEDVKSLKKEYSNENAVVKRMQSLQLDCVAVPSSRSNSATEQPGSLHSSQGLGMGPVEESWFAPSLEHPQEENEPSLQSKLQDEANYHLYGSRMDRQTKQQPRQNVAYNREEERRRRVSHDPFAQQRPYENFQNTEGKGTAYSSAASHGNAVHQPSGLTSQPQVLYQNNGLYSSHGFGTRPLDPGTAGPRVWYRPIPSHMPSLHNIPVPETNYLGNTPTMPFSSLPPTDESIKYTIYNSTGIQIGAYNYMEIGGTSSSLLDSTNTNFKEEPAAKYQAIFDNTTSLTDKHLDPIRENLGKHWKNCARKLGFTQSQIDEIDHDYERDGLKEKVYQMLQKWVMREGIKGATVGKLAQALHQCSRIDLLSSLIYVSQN
UniProt Q9Y572: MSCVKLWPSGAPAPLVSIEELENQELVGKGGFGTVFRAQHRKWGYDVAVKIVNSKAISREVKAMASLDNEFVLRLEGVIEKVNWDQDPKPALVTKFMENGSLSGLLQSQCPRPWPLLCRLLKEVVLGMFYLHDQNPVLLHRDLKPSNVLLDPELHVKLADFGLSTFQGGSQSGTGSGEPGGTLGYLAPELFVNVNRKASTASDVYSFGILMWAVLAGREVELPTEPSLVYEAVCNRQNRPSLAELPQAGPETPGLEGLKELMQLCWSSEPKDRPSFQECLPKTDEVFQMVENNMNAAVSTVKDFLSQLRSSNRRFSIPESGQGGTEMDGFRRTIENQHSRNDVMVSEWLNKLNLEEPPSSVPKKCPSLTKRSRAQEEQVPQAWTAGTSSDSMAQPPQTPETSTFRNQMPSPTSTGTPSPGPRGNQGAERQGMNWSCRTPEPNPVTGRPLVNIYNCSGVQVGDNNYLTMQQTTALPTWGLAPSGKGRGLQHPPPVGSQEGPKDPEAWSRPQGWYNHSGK

Results are given in words; binding and its absence hold for the method and conditions named. In cells and extracts the contact can be indirect. Some entries that bind do so weakly or less than the wild type.

Turning to “receptor-interacting protein kinase 3 (RIPK3), human (from UniProt Q9Y572 1-518)”, the binding entry is on record as “binds”.

Source of the values: PMC10449909.
